# Library screening results

The chains behind the UniProt entries cited, without tags or fusion partners.
UniProt E9BF75, entry or part of it: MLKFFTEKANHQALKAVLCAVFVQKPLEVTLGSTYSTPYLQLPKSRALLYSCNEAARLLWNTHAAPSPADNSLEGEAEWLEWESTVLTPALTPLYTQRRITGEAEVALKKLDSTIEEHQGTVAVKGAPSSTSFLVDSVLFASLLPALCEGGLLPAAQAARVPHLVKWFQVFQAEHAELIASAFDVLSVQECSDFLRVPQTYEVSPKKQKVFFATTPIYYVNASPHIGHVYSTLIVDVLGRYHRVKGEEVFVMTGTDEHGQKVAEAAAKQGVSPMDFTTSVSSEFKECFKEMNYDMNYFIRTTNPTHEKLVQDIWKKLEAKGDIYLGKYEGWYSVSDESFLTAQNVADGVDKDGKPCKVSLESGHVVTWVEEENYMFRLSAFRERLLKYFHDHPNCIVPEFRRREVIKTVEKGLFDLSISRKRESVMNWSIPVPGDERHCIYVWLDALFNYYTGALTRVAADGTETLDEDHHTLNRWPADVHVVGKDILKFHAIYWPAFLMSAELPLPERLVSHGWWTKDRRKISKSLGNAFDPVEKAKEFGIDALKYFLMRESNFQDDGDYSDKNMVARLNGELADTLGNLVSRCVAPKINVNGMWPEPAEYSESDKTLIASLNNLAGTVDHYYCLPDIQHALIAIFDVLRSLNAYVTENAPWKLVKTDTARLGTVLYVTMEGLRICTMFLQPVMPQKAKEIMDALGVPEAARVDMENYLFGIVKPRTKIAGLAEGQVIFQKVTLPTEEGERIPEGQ

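Methionyl-tRNA synthetase (putative), Leishmania donovani (UniProt E9BF75). Primary screen of methionyl-tRNA synthetase; the read-out is not stated. The test concentration is not given. Values are per cent inhibition. Of about 68,000 compounds tested this way, about 24 (0.035%) reached 50% or more in at least one test.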

Results are percentages, as filed.
How 0% and 100% were set is not recorded. Most values in the screen are low, and negative values occur.
Compounds were drawn at random from those tested, without regard to their results.

compound | Inhibition
Cc1noc(C)c1C(=O)N1Cc2ncn(C)c2C(COCC(C)C)C1 (stereo not drawn) | 12.47
O=C(N[C@]12CC1CN(C(=O)c1ccco1)C2)c1ccco1 (stereo partly drawn) | 7.778
CN(C(=O)NCc1nccn1Cc1ccccc1)C1CC1 | 24.86
O=C(CC1CCCC1)NCCn1ccc(-c2ccccn2)n1 | 20.59
Cc1ccc(CN2CC[C@@H](O)[C@@H]2Cc2ccccc2)o1 | 6.884
c1cc(CN2CCC(c3ccc4c(c3)OCO4)CC2)ccn1 | 3.416
COc1cncc(-n2nc(C)c(CC(C)=O)c2C)c1 | -12.24
Cc1cccc2c1OCCCC2NCc1nnc2n1CCCCC2 (stereo not drawn) | 16.1
CCc1c(C)n(CC(=O)OC)c2nc3ccccc3n2c1=O | 15.01
CN(C(=O)CN1CCOC(Cn2cccn2)C1)c1nccs1 (stereo not drawn) | 16.38
CC(C)S(=O)(=O)N1CCCC(c2nccn2Cc2cccnc2)C1 (stereo not drawn) | 13.77
CC(C)C(C)n1nccc1NC(=O)Cn1cnc2ccccc21 (stereo not drawn) | 14.4
Cc1ccc(CN(C)C(=O)c2cnsn2)cc1 | 7.606
CCN1CCC2(CC1)CC(COC)N(Cc1csc(C)n1)C2 (stereo not drawn) | 3.833
Cc1cccc(CNC(=O)CCc2c(C)nc3cc(O)nn3c2C)n1 | 13.96
COCCN1C[C@H]2CC[C@@H]1CN(C(=O)CCc1c(C)nn(C)c1C)C2 | 13.07
Cc1cc2ccccc2n1CCC(=O)N1CCCCC1CCO (stereo not drawn) | 15.46
CC(C)c1nnc2n1CCN(C(=O)CN(C)Cc1ccccc1)C2 | 14.8
Cc1ccccc1NC(=O)Nc1cc(N2CCCC2)ncn1 | 0.7194
NC(=O)CN1CCC(NC2CSCCc3ccccc32)CC1 (stereo not drawn) | 9.059
Cc1ccc(C)c(-n2nnnc2SCN2CCCCC2=O)c1 | 9.091
CNc1ccc(C)cc1C(=O)N1CCCC2(CCNC2)C1 (stereo not drawn) | 12.47
COc1ccc(Cl)cc1NCCC(=O)NCCNc1cnccn1 | 21.11
N#Cc1cccc(N2CCC3(CC2)Nc2ccccc2NC3=O)n1 | 22.45
CC(C)n1ccnc1CN1CCCN(C(=O)c2ncccc2O)CC1 | 17.71
CCC(Nc1cccc(OC)c1)C(=O)NCc1ccc2c(c1)OCO2 (stereo not drawn) | 17.35
O=C(COc1coc(CN2CCCCC2)cc1=O)Nc1ccccc1Cl | 15.35
CCn1cc(CNCC(c2ccc(Cl)cc2)n2cccn2)cn1 (stereo not drawn) | 11.86
COC(=O)[C@@H]1Cc2[nH]cnc2CN1Cc1cc2ccccc2o1 | 5.495
Cn1ccc(C(=O)N2CCC3(CCC(=O)N(C4CCCC4)C3)CC2)n1 | 1.872
O=C(c1ccc(O)c(Cl)c1)N(Cc1ccncc1)C1CC1 | 5.072
c1cnc(N2CCOCC3(CCN(c4cnccn4)CC3)C2)nc1 | 14.57
Fc1ccc(-c2cnc(CN3CCCC3Cn3cccn3)o2)cc1 (stereo not drawn) | 2.347
Cc1ccc(CN(CCCN2CCOCC2)Cc2cnn(C)c2)o1 | 5.938
CSC(C)(C)CNC(=O)NC1CCN(CC2CC2)C1 (stereo not drawn) | 8.488
O=C(COCc1ccco1)Nc1cc(C(F)(F)F)c[nH]c1=O | 6.286
COCCCN1CCCCC12CC(=O)N(Cc1ccccn1)C2 (stereo not drawn) | 12.11
Cc1nn(C)c(C)c1C1CCCN1C(=O)c1nccnc1N (stereo not drawn) | 7.407
COc1ccc(-c2cc(C3(O)CCCC3)on2)cc1 | -0.2398
O=C1CCCc2cc(S(=O)(=O)NCc3ccccn3)ccc2N1 | 5.013
CC(C)n1ccnc1C1CCN(C(=O)N2CCCC2)CC1 | 11.37
O=C(NCCN1CCOCC1)c1ccn(COc2ccc(F)cc2)n1 | -3.266
COC1CCN(C(=O)Cn2ncc(N3CCCCC3)cc2=O)C1 (stereo not drawn) | 14.03
CS(=O)(=O)NC1CCN(Cc2coc(-c3ccccc3)n2)CC1 | 16.72
Cc1ccc(CNC(C)c2ccc(OCC(=O)NC3CC3)cc2)o1 (stereo not drawn) | 19.77
COc1ccccc1CC(NC(=O)N1CCOCC1)C(C)C (stereo not drawn) | 12.63
Clc1cccc(C(CNc2ncccn2)N2CCOCC2)c1 (stereo not drawn) | -253.3
C=C(C)CN(c1cn[nH]c1)S(=O)(=O)c1cccc(C#N)c1 | 10.99
O=C1C(NCc2cccc(O)c2)CCN1Cc1ccccc1 (stereo not drawn) | 16.67
CN(C)C(=O)COCc1nnc2n1CCN(Cc1ccsc1)C2 | 11.28
COc1ccc(Nc2c[nH]c(=O)[nH]c2=O)cc1 | 2.517
CSc1ccc(C(=O)N2CCOCC2c2c(C)nn(C)c2C)o1 (stereo not drawn) | 16.48
Cc1nc(CNCC(C)c2nc3ccccc3o2)cs1 (stereo not drawn) | 9.409
COc1ccc(NC(=O)C(c2cccc(F)c2)N2CCOCC2)cc1 (stereo not drawn) | 14.08
COCCOCCNc1cncc(Br)c1 | 24.18
Cc1nc(-c2ccc(S(=O)(=O)N3CCC4(CC3)OCCO4)cc2)co1 | 9.561
COc1ccc(CN2CCNC(=O)CC2)cc1SC(F)(F)F | 14.98
CCN(CC)C(=O)[C@@H]1C[C@H](N)CN1c1nnc(-c2ccccc2)s1 | 10.43
CC(OCC1CC1)C(=O)Nc1ncccc1I (stereo not drawn) | 13.43
CO[C@@H]1CCN(C(=O)Cc2cccc(F)c2)[C@H]1Cc1cccnc1 | 5.495
Cc1ccc(CC(=O)N(C)CC2(O)CCCN(c3ccccn3)C2)s1 (stereo not drawn) | 20.06
Cc1nc[nH]c1CN1CCn2nc(CN3CC[C@H](F)C3)cc2C1 | 5.155
CN(Cc1nc(N)nc(N(C)C)n1)Cc1cccc2ccccc12 | 1.955
Cc1ccc(OCC(=O)NCc2ccco2)nc1 | 11.35
CCC(CC)N(Cc1cc(=O)n(C)c(=O)n1C)C1CC1 | -0.8357
CCCn1[nH]cc/c1=N\C(=O)CN1CCCC1Cn1nc(C)nc1C (stereo not drawn) | 15.81
CCC1CN(C(=O)c2cccnc2O)CCC(=O)N1Cc1ccccc1 (stereo not drawn) | 13.48
CN(Cc1ccoc1)C(=O)CN1C(=O)OC(C)(C)C1=O | 10.65
O=C(c1cc(C2CCCC2)no1)N1CCCCC1 | 5.721
Cc1cc(NC(=O)C(C#N)Cc2cnn(C)c2C)no1 (stereo not drawn) | 17.69
COCc1noc(C2(c3ccc(F)cc3)CCOCC2)n1 | -1.087
Cc1cc(O)n(-c2ccc3nnc(C)n3n2)n1 | 15.3
CC(C)COCC(NC(=O)Cc1ccn[nH]1)c1ccco1 (stereo not drawn) | 20.17
Cc1c(C(=O)O)nnn1Cc1cccc(C(F)(F)F)c1 | 8.571
O=C(c1ccc(SC(F)(F)F)cc1)N1CCOCC1c1ncon1 (stereo not drawn) | 11.42
COc1cccc(N2CC3(CCN(c4cc(OC)ncn4)C3)CC2=O)c1 (stereo not drawn) | 1.418
O=C(NCC1(O)CCOC1)NCC1(c2ccccc2Cl)CC1 (stereo not drawn) | 16.62
CNc1nc(C2CCCN(C(=O)C3CCCCC3)C2)nc2c1CNCC2 (stereo not drawn) | 13.3

Some entries from above, unchanged:

* CCn1cc(CNCC(c2ccc(Cl)cc2)n2cccn2)cn1 (stereo not drawn) : 11.86%
* Cc1nn(C)c(C)c1C1CCCN1C(=O)c1nccnc1N (stereo not drawn) : 7.407%
* CCC(CC)N(Cc1cc(=O)n(C)c(=O)n1C)C1CC1 : -0.8357%
* COc1ccc(Nc2c[nH]c(=O)[nH]c2=O)cc1 : 2.517%
* NC(=O)CN1CCC(NC2CSCCc3ccccc32)CC1 (stereo not drawn) : 9.059%
* CCc1c(C)n(CC(=O)OC)c2nc3ccccc3n2c1=O : 15.01%
* CSC(C)(C)CNC(=O)NC1CCN(CC2CC2)C1 (stereo not drawn) : 8.488%

Data taken from ChEMBL document CHEMBL3988442, “University of Dundee, Small-Polar-MMV Screening Library” (2021).